Measurements: the supplement of paper PMC7024190
The list shows a part of the results. This data set is noisy: repeats of one test often differ as much as different tests do.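 The cells were human embryonic kidney cells carrying a Renilla luciferase gene, driven by the HSV-TK promoter, on a plasmid put in briefly by transfection. This is the first-round screen of about ten thousand compounds, looking for ones that raise reporter output.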

system: HEK 293FT; assay: log relative Renilla luciferase luminescence (reporter expression vs reference, reference not stated) (log (base not stated)); higher = higher recombinant reporter expression; conditions: 10 µM; time after transfection 48 h
Method: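 HEK 293FT cells transiently transfected with pRL-TK (Renilla luciferase) were treated with compounds at 10 uM and luminescence was read about 42 h later. Values are log relative Renilla luminescence (log base and reference not stated). Single-pass screen; 2080 natural products library.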

Row | Structure (SMILES) | log
1 | COc1cc([C@@H]2OC[C@@H]3[C@H]2CO[C@H]3c2ccc(O)c(OC)c2)ccc1O [(+)-Pinoresinol] | -0.2
2 | COc1c2c(cc3oc(CO)cc(=O)c13)O[C@H](C(C)(C)O)C2 [Cimifugin] | 0.0634
3 | C/C(=C\C(=O)C[C@@H](C)[C@H]1CC[C@@]2(C)[C@@H]3CC[C@H]4C(C)(C)C(=O)CC[C@@]45C[C@@]35CC[C@]12C)C(=O)O [3,23-dioxo-9,19-Cyclolanost-24-en-26-oic acid] | -0.129
4 | COc1ccc2ccc(=O)oc2c1C(C=O)=C(C)C [Murralongin] | -0.262
5 | C/C=C1\C[N+]2([O-])CCC1C(CO)(C(=O)OC)c1[nH]c3ccccc3c1C2 (stereo not given) [Vallesamine N-oxide] | -0.321
6 | COc1cc(C[C@@]2(O)CO[C@H](c3ccc(O)c(OC)c3)[C@@]2(O)CO)ccc1O [Massoniresinol] | -0.0962
7 | C=C1CCC2OC2(C)CC[C@@H]2[C@@H]1OC(=O)C2(C)C (stereo not given in full) [Epoxyparvinolide] | -0.121
8 | CC(=O)OC[C@H](O)[C@]1(C)C=C2CC[C@@H]3C(C)(C)[C@H](O)CC[C@@]3(C)[C@@H]2CC1 [16-O-Acetyldarutigenol] | 0.0106
9 | CC(=O)OC[C@H](OC(C)=O)[C@]1(C)C=C2CC[C@@H]3C(C)(C)[C@H](O[C@@H]4O[C@H](CO)[C@@H](O)[C@H](O)[C@H]4O)CC[C@@]3(C)[C@@H]2CC1 [15,16-Di-O-acetyldarutoside] | 0.363
10 | C=C(C)C1CCC(C)(O)C(O)C1 (stereo not given) [p-Menth-8-ene-1,2-diol] | -0.225
11 | CC(C)c1cc2c(c(O)c1O)[C@@]13CCCC(C)(C)[C@@H]1[C@@H](O)[C@@H]2O[C@@H]3O [6-Epidemethylesquirolin D] | -0.299
12 | CC1(C)CC[C@]2(C(=O)O)CC[C@]3(C)C(=CC[C@@H]4[C@@]5(C)C[C@@H](O)[C@@H](O)[C@](C)(CO)[C@@H]5CC[C@]43C)[C@@H]2C1 [2,3,24-Trihydroxyolean-12-en-28-oic acid] | -0.248
13 | CCCCCCCCCCCCCCCC(=O)O[C@H]1CC[C@]2(C)[C@H]3CC=C4[C@@H]5CC(C)(C)CC[C@]5(C)CC[C@@]4(C)[C@]3(C)CC[C@H]2C1(C)C [beta-Amyrin palmitate] | 0.152
14 | CC[C@]12C=CCN3CC[C@@]4(c5ccccc5N(C)[C@H]4[C@@](O)(C(=O)OC)[C@@H]1OC(C)=O)[C@@H]32 [Vindorosine] | 0.00152
15 | CCCCCCCCCCCCCCCCCCCCCCCCCc1cc(O)cc(O)c1 [5-Pentacosylresorcinol] | 0.199
16 | CC[C@@]12CCCN3C(=O)C=C(c4ccccc4NC(=O)CC1)[C@]32O [Leuconolam] | 0.0171
17 | O=c1c2cccc(O)c2nc2n1CCc1c-2[nH]c2ccccc12 [1-Hydroxyrutaecarpine] | 0.00461
18 | C=C1C(=O)OC2C=C(C)CCC=C(C)CC(OC(C)=O)C12 (stereo not given) [Epitulipinolide] | 0.0607
19 | C=C1CC[C@]2(C)CC[C@]3(C)[C@H](CC[C@@H]4[C@@]5(C)CC[C@H](OC(C)=O)C(C)(C)[C@@H]5CC[C@]43C)[C@H]2[C@@H]1C [Taraxasterol acetate] | -0.111
20 | COC(=O)C(C)CCc1c[nH]c2ccccc12 (stereo not given) [Paniculidine A] | -0.181

Look-ups from the results shown.
Entry of COC(=O)C(C)CCc1c[nH]c2ccccc12 (stereo not given) [Paniculidine A] under log: -0.181
Entry of CC(=O)OC[C@H](O)[C@]1(C)C=C2CC[C@@H]3C(C)(C)[C@H](O)CC[C@@]3(C)[C@@H]2CC1 [16-O-Acetyldarutigenol] under log: 0.0106

Further records.

Row | Structure (SMILES) | log
21 | CC(=O)O[C@@H]1C[C@@]23C[C@@]24CC[C@H](O[C@@H]2OC[C@@H](O)[C@H](O)[C@H]2O)C(C)(C)[C@@H]4CC[C@H]3[C@]2(C)C[C@@H]3O[C@]4(C[C@@H](C)[C@@H]3[C@@]12C)O[C@H](O)[C@@]1(C)O[C@@H]41 [Actein] | 0.0419
22 | COc1cc2ccc(=O)oc2cc1O[C@@H]1O[C@H](CO)[C@@H](O)[C@H](O)[C@H]1O [Scopolin] | 0.0607
23 | C[C@@H]1C[C@H]2O[C@@]3(O[C@@H]2C(C)(C)O)[C@H](O)[C@@]2(C)[C@@H]4CC[C@H]5C(C)(C)[C@@H](O[C@@H]6OC[C@@H](O)[C@H](O[C@@H]7OC[C@@H](O)[C@H](O)[C@H]7O)[C@H]6O)CC[C@@]56C[C@@]46CC[C@]2(C)[C@@H]13 [Cimiside B] | 0.226
24 | Cc1cccc2c3c(ccc12)C1=C(C(=O)C3=O)[C@@H](C)CO1 [15,16-Dihydrotanshinone I] | -0.2
25 | COC(=O)N1c2ccccc2[C@@]23[C@@H]4CN5CCC[C@@](CC[C@]12C(=O)OC)(CC4=O)[C@H]53 [Methyl chanofruticosinate] | -0.0216
26 | COc1cc(C2Oc3cc4oc(=O)ccc4cc3OC2CO)cc(OC)c1O (stereo not given) [Moluccanin] | -0.39
27 | COc1c2ccoc2cc2oc(C)cc(=O)c12 [Visnagin] | -0.0479
28 | C=C(C)C(O)CC[C@@H](C)[C@H]1CC[C@@]2(C)[C@@H]3CC[C@H]4C(C)(C)[C@@H](O)CC[C@@]45C[C@@]35CC[C@]12C (stereo not given in full) [Cycloart-25-ene-3,24-diol] | -0.288
29 | Oc1ccc([C@H]2Oc3cc(O)cc(O)c3C[C@H]2O)cc1 [(-)-Epiafzelechin] | 0.138
30 | COc1ccc(-c2oc3cc(OC)c(OC)c(OC(C)=O)c3c(=O)c2OC)cc1OC [Artemetin acetate] | -0.0636
31 | CC(C)[C@H]1CC[C@@H]2[C@]1(C)CC[C@]1(C)C3=C(CC[C@@]21C)[C@@](C)(CC(=O)O)[C@H](C(C)(C)C=O)CC3 [Alstonic acid A] | -0.0445
32 | CC(C)(O[C@@H]1O[C@H](CO)[C@@H](O)[C@H](O)[C@H]1O)[C@H](O)COc1c2occc2cc2ccc(=O)oc12 [Heraclenol 3'-O-beta-D-glucopyranoside] | 0.437
33 | CC1=C(C(=O)O)C(C)(C)CC(O)C1 (stereo not given) [4-Hydroxy-2,6,6-trimethyl-1-cyclohexenecarboxylic acid] | -0.184
34 | COc1cc([C@@H]2OC[C@@H]3[C@H]2CO[C@H]3c2cc(OC)c(O[C@@H]3O[C@H](CO)[C@@H](O)[C@H](O)[C@H]3O)c(OC)c2)cc(OC)c1O [Acanthoside B] | -0.321
35 | CC(=O)Oc1cc(O)c2c(=O)cc(-c3ccccc3)oc2c1 [5-hydroxy-7-acetoxyflavone] | 0.112
36 | COc1c(O)cc2c(c1O)C(=O)C[C@@H](c1ccc(O)cc1)O2 [6-Methoxynaringenin] | 0.0912
37 | O=c1c2ccccc2nc2n1CCc1c-2[nH]c2ccccc12 [Rutaecarpine] | -0.00754
38 | COc1cc(C2Oc3c(OC)cc(/C=C/CO)cc3C2CO)ccc1O (stereo not given) [Dehydrodiconiferyl alcohol] | 0.171
39 | COc1cc(O)cc(O)c1C(C)=O [2,4-Dihydroxy-6-methoxyacetophenone] | 0.0981
40 | COc1cc(O)c2c(=O)cc(-c3ccc(O)cc3)oc2c1 [Genkwanin] | 0.0179
